No constants are given. Whether binding was seen depends on the method and setting. Some binding calls cover weakened binding; strength is not graded here.
Tests used:
[1] = biological target: MyoVa-GTD-S1651E/S1652E (globular tail domain of myosin Va, phosphomimetic) (human) (UniProt Q9Y4I1); assay: two-hybrid; Matchmaker Gold screen; bait pGBKT7-EE in S. cerevisiae Y2H Gold against a universal human-normalized cDNA library (pGADT7 preys); clones positive for HIS3, ADE2, AUR1-C and MEL1
[2] = biological target: MyoVa-GTD-S1651E/S1652E (globular tail domain of myosin Va, phosphomimetic) (human) (UniProt Q9Y4I1); assay: two-hybrid; pairwise validation; Y2H Gold cells co-transformed with pGBKT7 and pGADT7 vectors, 30°C, 4 days on QDO/X/A agar (four reporter genes); empty pGBKT7 as negative control

By UniProt entry, the sequences of proteins in these tests, tags left out. Where a name states a change or a piece, a line headed by the entry shows the natural chain unless it says otherwise. Chains listed by the source or under a name are the forms on record and can include a tag or linker. Residues count along the entry.
MyoVa-GTD-S1651E/S1652E (globular tail domain of myosin Va, phosphomimetic) (Q9Y4I1, form named): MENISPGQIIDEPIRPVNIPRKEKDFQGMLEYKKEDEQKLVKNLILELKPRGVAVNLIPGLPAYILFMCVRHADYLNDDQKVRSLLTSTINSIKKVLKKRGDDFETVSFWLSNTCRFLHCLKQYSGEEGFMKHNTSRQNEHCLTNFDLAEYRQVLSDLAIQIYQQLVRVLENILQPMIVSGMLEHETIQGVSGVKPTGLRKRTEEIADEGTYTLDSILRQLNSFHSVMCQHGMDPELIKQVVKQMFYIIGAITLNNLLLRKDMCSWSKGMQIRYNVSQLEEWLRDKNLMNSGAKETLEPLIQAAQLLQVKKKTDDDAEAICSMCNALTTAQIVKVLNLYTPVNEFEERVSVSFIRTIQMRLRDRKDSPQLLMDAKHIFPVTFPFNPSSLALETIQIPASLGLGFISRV
UniProt Q8TAF3, residues 451-677: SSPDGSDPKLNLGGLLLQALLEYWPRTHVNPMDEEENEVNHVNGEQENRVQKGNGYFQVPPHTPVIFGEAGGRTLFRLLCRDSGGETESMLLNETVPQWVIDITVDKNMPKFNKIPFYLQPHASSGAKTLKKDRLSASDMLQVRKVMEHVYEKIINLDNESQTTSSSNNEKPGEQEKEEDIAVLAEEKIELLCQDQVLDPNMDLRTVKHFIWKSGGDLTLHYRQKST

- binding [1]: binds
- binding [2]: binds
Substance: WDR48 451-677, DUF3337 domain of WD repeat-containing protein 48 (two-hybrid prey, clone 30) (from UniProt Q8TAF3-1 451-677) (domain or fragment)
